The numbers were not newly measured in publication PMC3167688 (Nuclear medicine and biology, 2009), which cites them from elsewhere.

In data set [1] the test system is kinases and phosphatases. The note with it: cited from earlier work.
The subject of data set [2] is neprilysin. The note with it: albeit with lower potency than class I and II HDACs; cited from earlier work.
Data set [3] has as its system ACE (angiotensin-converting enzyme). The note with it: albeit with lower potency than class I and II HDACs; cited from earlier work.

Take `O=C(CCCCCCC(=O)Nc1ccccc1)NO` [SAHA, suberanilohydroxamic acid]: the “inhibitory activity to a number of kinases and phosphatases” value in data set [1] is recorded as “no inhibitory activity”. Besides, in data set [2], the inhibition of neprilysin entry is on record as “inhibit”. Further, the “inhibition of ACE” value in data set [3] is “inhibit”.
